Source: ChEMBL document CHEMBL1157874, “Synthesis, spectroscopic and biological studies on the new symmetric Schiff base derived from 2,6-diformyl-4-methylphenol with N-aminopyrimidine” (2010)
Converted amounts (≈) assume the structure as drawn.

Assays:
Assay type in all cases: functional
Staphylococcus aureus [1] = assay: Antibacterial activity against Staphylococcus aureus ATCC 25923 after 18 hrs by broth microdilution assay; details: ATCC 25923, 18 h
Escherichia coli = assay: Antibacterial activity against Escherichia coli ATCC 4230 after 18 hrs by broth microdilution assay; details: ATCC 4230, 18 h
Staphylococcus aureus [2] = assay: Antibacterial activity against Staphylococcus aureus ATCC 6538 after 18 hrs by broth microdilution assay; details: ATCC 6538, 18 h
Candida parapsilosis = assay: Antifungal activity against Candida parapsilosis ATCC 22019 after 18 hrs by broth microdilution assay; details: Lodderomyces parapsilosis, ATCC 22019, 18 h
Candida albicans = assay: Antifungal activity against Candida albicans ATCC 14053 after 18 hrs by broth microdilution assay; details: ATCC 14053, 18 h

Compound: CC1(C)S[C@@H]2[C@H](NC(=O)[C@H](N)c3ccccc3)C(=O)N2[C@H]1C(=O)O [AMPICILLIN]
- MIC (Staphylococcus aureus [1]): 10 µg/mL (≈ 28.6 µM)
- MIC (Escherichia coli): 20 µg/mL (≈ 57.2 µM)
- MIC (Staphylococcus aureus [2]): 5 µg/mL (≈ 14.3 µM)

Compound: OC(Cn1cncn1)(Cn1cncn1)c1ccc(F)cc1F [FLUCONAZOLE]
- MIC (Candida parapsilosis): 5 µg/mL (≈ 16.3 µM)
- MIC (Candida albicans): 5 µg/mL (≈ 16.3 µM)
